# Measured data: PubChem BioAssay AID1259308 (NCATS, 2017)
# Screen: 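Candidate targets for better recombinant protein yield in mammalian cells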 (primary screen)
# Cells: human HEK293 embryonic kidney cells stably expressing firefly luciferase (HEK-CMV-Luc2-Hygro)
# Reagents: single siRNA against human genes, 0.8 pmol siRNA per well
# Timing: 72 h
# Measured: 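Reporter luminescence and viable-cell signal on separate replicate plates, given as percent of non-targeting control and median/MAD z-scores, plus per-cell luciferase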
# Scale: total luciferase, z-score and total luciferase, % of control: higher = more reporter protein produced; luciferase per cell, z-score: higher = more reporter output per viable cell
# Rule for the call: 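An siRNA counts as active if its total luciferase robust z-score exceeds 3; genes with two or more such siRNAs out of three were retested with fresh siRNAs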
# Meaning of the calls: active = raised luciferase; inactive = no rise
# Shown is one part, drawn at random, of about 59,000 reagents. Over the whole deposit, about 1,510 (2.6%) were called active. 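Calls use total luciferase alone and ignore viability, so some active siRNAs may act by altering cell number.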 A number with no mark means an inactive call. The numbers tell different reagents against one gene apart. Not all columns of the deposit are shown.
gene knocked down,siRNA no.,"total luciferase, z-score","total luciferase, % of control","luciferase per cell, z-score"
YIPF4 (GeneID 84272),1,-1.58,50.5,-1.77
YIPF4 (GeneID 84272),2,0.109,84.1,-0.285
YIPF4 (GeneID 84272),3,-0.923,63.5,-0.0226
PCP4 (GeneID 5121),1,0.373,89.3,2.43
PCP4 (GeneID 5121),2,1.77,117,1.88
PCP4 (GeneID 5121),3,-1.62,49.7,-1.94
SPATA31J1 (GeneID 285679),1,1.26,107,0.43
SPATA31J1 (GeneID 285679),2,0.516,92.2,0.557
SPATA31J1 (GeneID 285679),3,-0.987,62.2,-0.762
SPATA31J1 (GeneID 285679),4,2.66,135,1.57
SPATA31J1 (GeneID 285679),5,1.6,114,1.25
SPATA31J1 (GeneID 285679),6,0.23,86.5,-0.304
PPP1R3D (GeneID 5509),1,0.0568,83,0.722
PPP1R3D (GeneID 5509),2,-1.34,55.2,-1.4
PPP1R3D (GeneID 5509),3,-0.202,77.9,-0.591
PRR4 (GeneID 11272),1,-0.42,73.5,-1
PRR4 (GeneID 11272),2,-1.44,53.3,-2.1
PRR4 (GeneID 11272),3,-1.75,47.1,-1.07
SAG (GeneID 6295),1,-0.0631,80.6,-0.84
SAG (GeneID 6295),2,0.186,85.6,-0.0711
SAG (GeneID 6295),3,0.612,94.1,0.0645
SLC5A7 (GeneID 60482),1,-0.945,63.1,-0.925
SLC5A7 (GeneID 60482),2,0.175,85.4,-0.0511
SLC5A7 (GeneID 60482),3,-0.766,66.6,-0.484
G6PD (GeneID 2539),1,-0.296,76,-0.458
G6PD (GeneID 2539),2,-1.31,55.7,-0.463
G6PD (GeneID 2539),3,-0.117,79.6,0.604
CIMIP2A (GeneID 401565),1,1.51,112,1.56
CIMIP2A (GeneID 401565),2,0.463,91.1,1.15
CIMIP2A (GeneID 401565),3,1.58,113,1.29
RPUSD3 (GeneID 285367),1,-0.53,71.3,-0.113
RPUSD3 (GeneID 285367),2,-0.984,62.3,-1.25
RPUSD3 (GeneID 285367),3,-0.496,72,-0.753
LINC00205 (GeneID 642852),1,0.648,94.8,0.139
LINC00205 (GeneID 642852),2,-0.897,64.1,-0.515
LINC00205 (GeneID 642852),3,-0.345,75,-0.385
ZMAT2 (GeneID 153527),1,0.305,87.9,2.19
ZMAT2 (GeneID 153527),2,-0.312,75.7,0.525
ZMAT2 (GeneID 153527),3,1.44,111,1.33
SSU72P1 (GeneID 286528),1,-0.0179,81.5,0.146
SSU72P1 (GeneID 286528),2,-0.175,78.4,-0.56
SSU72P1 (GeneID 286528),3,0.0155,82.2,-0.217
PCDH18 (GeneID 54510),1,0.39,89.6,-0.0277
PCDH18 (GeneID 54510),2,0.384,89.5,0.789
PCDH18 (GeneID 54510),3,0.782,97.4,1.18
ZDHHC3 (GeneID 51304),1,-0.507,71.8,0.308
ZDHHC3 (GeneID 51304),2,-0.516,71.6,-0.508
ZDHHC3 (GeneID 51304),3,-0.0525,80.8,-0.183
KCNRG (GeneID 283518),1,-1.43,53.4,-1.41
KCNRG (GeneID 283518),2,0.0187,82.3,0.797
KCNRG (GeneID 283518),3,-0.547,71,0.207
NDRG3 (GeneID 57446),1,-0.948,63,-1.28
NDRG3 (GeneID 57446),2,-0.912,63.7,-1.02
NDRG3 (GeneID 57446),3,-1.83,45.5,-1
CIBAR2 (GeneID 339145),1,0.846,98.7,0.944
CIBAR2 (GeneID 339145),2,0.122,84.3,0.0124
CIBAR2 (GeneID 339145),3,1.38,109,0.689

Only “luciferase per cell, z-score”, for 9 of the entries above:
CIMIP2A (GeneID 401565) #2	1.15
CIMIP2A (GeneID 401565) #3	1.29
RPUSD3 (GeneID 285367) #1	-0.113
RPUSD3 (GeneID 285367) #2	-1.25
RPUSD3 (GeneID 285367) #3	-0.753
LINC00205 (GeneID 642852) #1	0.139
LINC00205 (GeneID 642852) #2	-0.515
LINC00205 (GeneID 642852) #3	-0.385
ZMAT2 (GeneID 153527) #1	2.19
